The results in this text go back to PMC9915769, “A novel binding site on the cryptic intervening domain is a motif-dependent regulator of O-GlcNAc transferase” (Research Square, 2023).

The chains behind the UniProt entries cited, without tags or fusion partners. Where a name states a change or a piece, a line headed by the entry shows the natural chain unless it says otherwise.
UniProt Q5JPB2: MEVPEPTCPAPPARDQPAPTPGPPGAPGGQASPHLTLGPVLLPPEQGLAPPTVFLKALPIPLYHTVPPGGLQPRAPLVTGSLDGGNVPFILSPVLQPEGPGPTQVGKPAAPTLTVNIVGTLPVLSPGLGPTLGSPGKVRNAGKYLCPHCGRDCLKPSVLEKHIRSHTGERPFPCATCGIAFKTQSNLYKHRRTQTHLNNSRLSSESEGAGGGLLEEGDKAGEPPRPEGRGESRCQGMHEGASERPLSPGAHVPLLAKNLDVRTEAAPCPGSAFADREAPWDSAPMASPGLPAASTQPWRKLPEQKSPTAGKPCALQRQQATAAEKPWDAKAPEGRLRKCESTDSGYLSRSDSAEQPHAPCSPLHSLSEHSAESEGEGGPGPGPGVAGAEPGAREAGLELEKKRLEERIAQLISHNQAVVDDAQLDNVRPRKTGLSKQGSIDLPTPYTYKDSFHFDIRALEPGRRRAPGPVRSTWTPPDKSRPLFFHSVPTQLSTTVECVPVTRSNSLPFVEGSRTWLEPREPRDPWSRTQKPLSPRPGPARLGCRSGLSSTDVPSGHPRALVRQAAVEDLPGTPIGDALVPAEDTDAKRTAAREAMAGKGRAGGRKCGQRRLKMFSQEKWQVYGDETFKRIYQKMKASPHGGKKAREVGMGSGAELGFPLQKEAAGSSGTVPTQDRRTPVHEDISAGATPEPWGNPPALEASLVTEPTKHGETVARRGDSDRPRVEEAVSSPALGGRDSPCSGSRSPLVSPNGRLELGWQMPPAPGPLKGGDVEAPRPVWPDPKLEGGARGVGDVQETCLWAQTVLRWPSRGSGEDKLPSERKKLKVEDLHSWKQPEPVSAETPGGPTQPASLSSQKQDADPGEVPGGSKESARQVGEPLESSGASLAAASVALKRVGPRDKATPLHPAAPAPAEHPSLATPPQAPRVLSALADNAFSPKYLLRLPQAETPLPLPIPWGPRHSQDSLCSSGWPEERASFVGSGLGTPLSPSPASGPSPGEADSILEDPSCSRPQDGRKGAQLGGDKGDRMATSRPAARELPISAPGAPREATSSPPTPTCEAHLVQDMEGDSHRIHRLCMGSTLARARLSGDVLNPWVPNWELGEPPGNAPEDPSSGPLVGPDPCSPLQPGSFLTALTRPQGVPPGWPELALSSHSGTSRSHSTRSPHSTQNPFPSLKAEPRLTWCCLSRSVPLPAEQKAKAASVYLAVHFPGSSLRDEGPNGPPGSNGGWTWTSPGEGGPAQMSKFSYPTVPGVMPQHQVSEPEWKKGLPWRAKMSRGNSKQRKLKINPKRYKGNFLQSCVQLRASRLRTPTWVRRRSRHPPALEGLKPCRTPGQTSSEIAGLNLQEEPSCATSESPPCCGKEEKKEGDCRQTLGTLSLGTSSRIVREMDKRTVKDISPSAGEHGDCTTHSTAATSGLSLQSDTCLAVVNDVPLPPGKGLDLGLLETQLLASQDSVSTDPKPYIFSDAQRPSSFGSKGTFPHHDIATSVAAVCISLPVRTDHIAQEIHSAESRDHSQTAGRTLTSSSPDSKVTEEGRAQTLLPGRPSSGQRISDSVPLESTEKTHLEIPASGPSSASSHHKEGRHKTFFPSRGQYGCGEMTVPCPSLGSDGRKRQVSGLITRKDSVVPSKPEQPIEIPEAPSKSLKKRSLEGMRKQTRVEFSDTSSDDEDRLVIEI

Test [1] addresses T1, OGT4.5 (crystallization construct of OGT with only 4.5 of 13.5 TPR repeats) (human) (UniProt O15294).
T1 sequence: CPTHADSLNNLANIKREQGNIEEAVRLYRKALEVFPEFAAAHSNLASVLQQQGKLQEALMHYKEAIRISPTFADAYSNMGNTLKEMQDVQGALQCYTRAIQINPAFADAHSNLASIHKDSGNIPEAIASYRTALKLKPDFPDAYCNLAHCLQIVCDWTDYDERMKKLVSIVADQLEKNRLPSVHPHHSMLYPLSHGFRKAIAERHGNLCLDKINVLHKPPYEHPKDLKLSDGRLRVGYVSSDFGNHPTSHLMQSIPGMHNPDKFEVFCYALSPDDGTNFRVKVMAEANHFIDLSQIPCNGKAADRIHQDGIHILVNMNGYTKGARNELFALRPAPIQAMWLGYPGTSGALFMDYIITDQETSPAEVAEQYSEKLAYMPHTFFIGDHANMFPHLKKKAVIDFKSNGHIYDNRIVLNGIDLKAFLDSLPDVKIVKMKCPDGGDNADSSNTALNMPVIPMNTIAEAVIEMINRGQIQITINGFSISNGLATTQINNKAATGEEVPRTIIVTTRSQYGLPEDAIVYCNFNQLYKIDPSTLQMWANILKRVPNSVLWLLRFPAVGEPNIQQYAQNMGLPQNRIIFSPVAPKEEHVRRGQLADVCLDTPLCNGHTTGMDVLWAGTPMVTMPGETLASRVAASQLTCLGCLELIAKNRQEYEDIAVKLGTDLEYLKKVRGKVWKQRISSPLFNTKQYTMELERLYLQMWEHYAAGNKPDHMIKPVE
The experiment in a line: crystal structure; OGT4.5 co-crystallised with 2 mM peptide and 1 mM UDP-GlcNAc; hanging drop, 20 C; both purified.

The target in test [2] is T2, full-length O-GlcNAc transferase (OGT), recombinant (human) (UniProt O15294).
T2 sequence: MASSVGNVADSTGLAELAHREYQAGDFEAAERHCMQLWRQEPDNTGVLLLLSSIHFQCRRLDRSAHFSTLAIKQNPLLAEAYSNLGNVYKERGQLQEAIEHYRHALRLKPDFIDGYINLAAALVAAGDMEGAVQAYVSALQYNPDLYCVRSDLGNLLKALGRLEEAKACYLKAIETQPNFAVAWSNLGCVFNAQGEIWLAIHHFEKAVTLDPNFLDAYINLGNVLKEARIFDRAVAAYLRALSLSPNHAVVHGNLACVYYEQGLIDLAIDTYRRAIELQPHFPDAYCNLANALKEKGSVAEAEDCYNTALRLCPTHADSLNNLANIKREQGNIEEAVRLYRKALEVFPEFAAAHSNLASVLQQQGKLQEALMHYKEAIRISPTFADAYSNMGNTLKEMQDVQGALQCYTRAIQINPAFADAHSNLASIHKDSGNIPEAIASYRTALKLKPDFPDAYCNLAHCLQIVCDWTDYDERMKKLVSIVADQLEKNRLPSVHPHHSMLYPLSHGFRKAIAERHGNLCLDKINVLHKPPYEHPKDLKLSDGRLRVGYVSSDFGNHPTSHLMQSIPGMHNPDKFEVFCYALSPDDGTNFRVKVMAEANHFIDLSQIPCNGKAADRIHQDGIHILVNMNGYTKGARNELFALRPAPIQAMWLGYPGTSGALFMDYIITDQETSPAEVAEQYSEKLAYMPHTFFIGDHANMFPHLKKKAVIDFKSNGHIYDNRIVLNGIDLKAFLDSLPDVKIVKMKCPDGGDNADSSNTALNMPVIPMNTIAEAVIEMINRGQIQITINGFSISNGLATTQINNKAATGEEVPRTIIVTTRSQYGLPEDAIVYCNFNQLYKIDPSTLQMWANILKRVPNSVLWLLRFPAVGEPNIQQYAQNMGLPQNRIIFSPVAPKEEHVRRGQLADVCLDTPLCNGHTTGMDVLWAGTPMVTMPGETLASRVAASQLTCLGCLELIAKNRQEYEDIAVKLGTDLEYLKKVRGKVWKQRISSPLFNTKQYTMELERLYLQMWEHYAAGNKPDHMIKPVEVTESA
The experiment in a line: fluorescence polarisation; competition: 2-fold serial dilutions of unlabeled peptide plus equal volume of 20 uM OGT with 0.4 uM 5-FAM-SMG9; TBS (150 mM NaCl, 20 mM Tris-HCl, pH 8.0); 20 min, room temperature; apparent binding affinity (EC50); both purified.

Test [3] concerns the target T3, fluorescently labeled 5-FAM-SMG9 peptide (human) (UniProt Q9H0W8).
T3 sequence (peptide, 5-FAM label (position not stated)): QRPTQPVYQIQNRGMG
The experiment in a line: fluorescence polarisation; saturation: 2-fold serial dilutions of OGT (WT or mutant) plus equal volume of 0.4 uM 5-FAM-SMG9; TBS (150 mM NaCl, 20 mM Tris-HCl, pH 8.0); 20 min, room temperature; both purified. (In general: In fluorescence polarisation assays a small probe gives low polarisation when free and higher when bound to something large.)

Test [4] addresses T3, fluorescently labeled 5-FAM-SMG9 peptide (human). In words: fluorescence polarisation; competition: 2-fold serial dilutions of unlabeled peptide plus equal volume of 20 uM OGT with 0.4 uM 5-FAM-SMG9; TBS (150 mM NaCl, 20 mM Tris-HCl, pH 8.0); 20 min, room temperature; apparent binding affinity (EC50); both purified.
Test [5] deals with T4, Flag-tagged OGT (wild type), mammalian expression (human) (UniProt O15294).
T4 sequence: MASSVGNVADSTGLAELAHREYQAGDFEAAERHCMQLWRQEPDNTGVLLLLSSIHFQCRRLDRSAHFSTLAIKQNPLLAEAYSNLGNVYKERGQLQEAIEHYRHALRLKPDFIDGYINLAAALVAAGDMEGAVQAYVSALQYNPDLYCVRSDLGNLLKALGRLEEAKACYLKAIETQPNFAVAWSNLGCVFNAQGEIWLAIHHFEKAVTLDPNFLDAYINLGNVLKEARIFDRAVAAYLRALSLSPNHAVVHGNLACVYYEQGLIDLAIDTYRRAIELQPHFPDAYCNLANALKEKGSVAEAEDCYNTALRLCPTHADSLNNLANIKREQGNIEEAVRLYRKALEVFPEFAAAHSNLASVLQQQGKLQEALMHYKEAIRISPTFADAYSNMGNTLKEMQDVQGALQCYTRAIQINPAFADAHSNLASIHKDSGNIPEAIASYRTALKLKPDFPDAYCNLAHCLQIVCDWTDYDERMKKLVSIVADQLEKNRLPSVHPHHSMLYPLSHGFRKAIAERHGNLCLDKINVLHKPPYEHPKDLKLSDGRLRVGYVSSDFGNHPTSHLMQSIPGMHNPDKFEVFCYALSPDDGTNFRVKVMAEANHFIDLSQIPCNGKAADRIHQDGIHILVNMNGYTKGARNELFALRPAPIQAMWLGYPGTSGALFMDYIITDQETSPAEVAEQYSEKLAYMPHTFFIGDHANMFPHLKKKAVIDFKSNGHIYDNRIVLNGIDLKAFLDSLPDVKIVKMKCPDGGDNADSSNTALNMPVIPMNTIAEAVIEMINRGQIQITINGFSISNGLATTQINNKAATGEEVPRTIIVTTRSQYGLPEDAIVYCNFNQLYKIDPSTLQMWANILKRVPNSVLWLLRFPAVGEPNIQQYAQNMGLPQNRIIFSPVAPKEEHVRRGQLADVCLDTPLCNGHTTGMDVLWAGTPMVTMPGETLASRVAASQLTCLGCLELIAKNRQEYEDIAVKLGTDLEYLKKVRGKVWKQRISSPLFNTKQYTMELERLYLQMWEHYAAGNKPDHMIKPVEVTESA
The experiment in a line: co-IP; HEK293 cells (legend: TRex-293) co-transfected with Flag-OGT and cMyc-SMG9 constructs; lysate (150 mM NaCl, 1% NP-40, 20 mM Tris-HCl pH 7.4) on Flag M2 agarose 16 h at 4 C; western blot. For orientation: A western blot detects proteins with antibodies after separation by electrophoresis.

No constants are given. Whether binding was seen depends on the method and setting. For some of these results: Binding seen in cells or lysates may run through a third protein. Some results given as binding are weak or reduced against the parent protein; the word gives no strength. For some of these results: Sequences can lack the tags named with a protein.

In the case of QRPTQPVYQIQNRGMG (peptide, UniProt Q9H0W8 140-155) [SMG9 peptide (140-155 aa), unlabeled], the binding entry in test [1] and in test [2] was “binds” throughout.

On to VLSALADNAFSPKYLL (peptide, UniProt Q5JPB2 928-943) [ZNF831 peptide (928-943 aa)], for which the binding result in test [1] and in test [2] was “binds” throughout.

B1: full-length O-GlcNAc transferase (OGT), recombinant (enzyme, UniProt O15294-3 1-1036)
chain: MASSVGNVADSTGLAELAHREYQAGDFEAAERHCMQLWRQEPDNTGVLLLLSSIHFQCRRLDRSAHFSTLAIKQNPLLAEAYSNLGNVYKERGQLQEAIEHYRHALRLKPDFIDGYINLAAALVAAGDMEGAVQAYVSALQYNPDLYCVRSDLGNLLKALGRLEEAKACYLKAIETQPNFAVAWSNLGCVFNAQGEIWLAIHHFEKAVTLDPNFLDAYINLGNVLKEARIFDRAVAAYLRALSLSPNHAVVHGNLACVYYEQGLIDLAIDTYRRAIELQPHFPDAYCNLANALKEKGSVAEAEDCYNTALRLCPTHADSLNNLANIKREQGNIEEAVRLYRKALEVFPEFAAAHSNLASVLQQQGKLQEALMHYKEAIRISPTFADAYSNMGNTLKEMQDVQGALQCYTRAIQINPAFADAHSNLASIHKDSGNIPEAIASYRTALKLKPDFPDAYCNLAHCLQIVCDWTDYDERMKKLVSIVADQLEKNRLPSVHPHHSMLYPLSHGFRKAIAERHGNLCLDKINVLHKPPYEHPKDLKLSDGRLRVGYVSSDFGNHPTSHLMQSIPGMHNPDKFEVFCYALSPDDGTNFRVKVMAEANHFIDLSQIPCNGKAADRIHQDGIHILVNMNGYTKGARNELFALRPAPIQAMWLGYPGTSGALFMDYIITDQETSPAEVAEQYSEKLAYMPHTFFIGDHANMFPHLKKKAVIDFKSNGHIYDNRIVLNGIDLKAFLDSLPDVKIVKMKCPDGGDNADSSNTALNMPVIPMNTIAEAVIEMINRGQIQITINGFSISNGLATTQINNKAATGEEVPRTIIVTTRSQYGLPEDAIVYCNFNQLYKIDPSTLQMWANILKRVPNSVLWLLRFPAVGEPNIQQYAQNMGLPQNRIIFSPVAPKEEHVRRGQLADVCLDTPLCNGHTTGMDVLWAGTPMVTMPGETLASRVAASQLTCLGCLELIAKNRQEYEDIAVKLGTDLEYLKKVRGKVWKQRISSPLFNTKQYTMELERLYLQMWEHYAAGNKPDHMIKPVEVTESA
As for B1, the binding entry in test [3] and in test [4] was “binds” in each case.

B2: cMyc-tagged SMG9 (wild type) (protein, UniProt Q9H0W8 1-520)
chain: MSESGHSQPGLYGIERRRRWKEPGSGGPQNLSGPGGRERDYIAPWERERRDASEETSTSVMQKTPIILSKPPAERSKQPPPPTAPAAPPAPAPLEKPIVLMKPREEGKGPVAVTGASTPEGTAPPPPAAPAPPKGEKEGQRPTQPVYQIQNRGMGTAAPAAMDPVVGQAKLLPPERMKHSIKLVDDQMNWCDSAIEYLLDQTDVLVVGVLGLQGTGKSMVMSLLSANTPEEDQRTYVFRAQSAEMKERGGNQTSGIDFFITQERIVFLDTQPILSPSILDHLINNDRKLPPEYNLPHTYVEMQSLQIAAFLFTVCHVVIVVQDWFTDLSLYRFLQTAEMVKPSTPSPSHESSSSSGSDEGTEYYPHLVFLQNKARREDFCPRKLRQMHLMIDQLMAHSHLRYKGTLSMLQCNVFPGLPPDFLDSEVNLFLVPFMDSEAESENPPRAGPGSSPLFSLLPGYRGHPSFQSLVSKLRSQVMSMARPQLSHTILTEKNWFHYAARIWDGVRKSSALAEYSRLLA
Regarding B2, the binding entry in test [5] is on record as “binds”.
